At least one peptide structure holds a part that was inferred or is arguable (an end, a ring closure or a residue). Where no end group is shown, it is not given here.
Assays:
[1] = test system: bone marrow damages; settings: in vivo
[2] = test system: stress gastric lesions; assay: Restraint stress; format: in vivo, rats
[3] = test system: immobilization stress myocardial damage; assay: Immobilization stress myocardial damage; format: in vivo, Albino Wistar rats and Hartley guinea pigs
[4] = test system: immobility time; assay: Forced swimming test (Porsolt); format: in vivo, rat; settings: 10 μg, 10 ng, 10 μg/kg, i.p.; corresponded to imipramine 15 mg or nialamide 40 mg i.p.
[5] = test system: inflation volume decrease by serotonin, histamine, acetylcholine, bradykinine; assay: Spasmogen-induced bronchoconstriction, whole body plethysmography; format: in vivo, Guinea pigs; settings: 10 μg/kg b.w., i.v. and/or 10 ng/kg b.w.
[6] = test system: spinal cord injury; assay: Spinal cord injury; format: in vivo, male Albino Wistar rats; settings: 10 μg, 10 ng/kg b.w., i.p., once daily until 10th day
[7] = test system: portal blood pressure, organ lesions; assay: Chronic alcohol intoxication; format: in vivo, Male Albino Wistar rats
Method: The effects of NaBPC157 on chronic alcohol intoxication were examined. Male Albino Wistar rats were used for these experiments. The rats were drinking either commercial whiskey or ethanol (10-20% water solution) for three months. The application of NaBPC157 (10 μg, 10 ng/kg b.w.), propranolol (10 mg/kg b.w.), and ranitidine (10 mg/kg b.w.) (control rats received an equivolume of saline 5.0 ml/kg), either intragastrically or intraperitoneally, was conducted either prophylactically (10 days before alcohol initiation) or as a co-treatment together with alcohol or therapeutically (starting at the end of a two month period, i.e. during the last month of the experiment).

[8] = test system: Ehrlich's ascites tumor cells; assay: Ehrlich's ascites tumor survival; format: in vivo, mice; settings: tumor cells previously incubated with 2 μg/ml
[9] = test system: cyclophosphamide-induced neutropenia; assay: Cyclophosphamide neutropenia; format: in vivo; settings: cyclophosphamide 180 mg/kg i.p.

Sequence: GEPPPGKPADDAGLV [NaBPC157, Monosodium Salt of BPC157]
- bone marrow damages by sub-lethal irradiation [1]: beneficial effects on bone marrow damages
- stress gastric lesions, 1 hour before stress ([2]; 10 μg or 10 ng/kg b.w., i.p. or i.g., 1 hour before stress induction): strongly prevented
- effect when applied in advanced stress pathology ([2]; e.g. 24 hours after stress induction): has a salutary effect even if applied when stress pathology is already advanced
- stress lesions in other organs ([2]; liver, adrenal gland, kidney, testis, heart, pancreas, spleen): attenuation of lesions
- activity with prolonged period between application and stress induction ([2]; prolonged period, up to 48 hours): maintained its salutary activity
- immobilization stress ischemia, post-treatment ([3]; in already overt electrocardiographic changes): relieved ischemia
- voltage of the QRS complex ([3]; microgram dosages): increase in voltage of the QRS complex
- immobilization stress ischemia and myocardial damage, pre-treatment ([3]; single i.p. pre-treatment): prevention of electrocardiographically demonstrated ischemia and histological myocardial damage
- immobility time, forced swimming test [4]: reduction of the immobility time
- spasmogen-induced decrease of inflation volume [5]: inhibited
- paralysis after spinal cord injury [6]: strong attenuation of otherwise sustained paralysis
- portal blood pressure ([7]; alcohol for three months, NaBPC157 10 μg, 10 ng/kg, propranolol, ranitidine 10 mg/kg b.w.): markedly prevented and/or decreased
- stomach lesions of alcohol treated rats ([7]; more than propranolol): markedly attenuate
- animals surviving to the end of the 45-day observation period [8]: More than 90%
- life of animals injected with pre-incubated tumor cells [8]: prolonged life
- hemoglobin values [9]: improved hemoglobin values
- neutropenia [9]: prevented neutropenia
- reticulocytes [9]: decreased the reticulocytes
